The campaign covered roughly 330,000 compounds. About 7,700 (2.3%) were called active. Inconclusive means that the source gave no clear call. Such entries were picked first, then a sample of the others. Calls follow the shape of the dose curve; as a rule, active = well fitted inhibition curve with a large enough effect; inconclusive = small, poorly fitted or top-dose-only effect, or effect the other way; inactive = flat fitted curve, though single readings scatter. A potency beside an inconclusive call is a rough fit, not a confirmed value.
Assay: qHTS screen for small molecules that inhibit ELG1-dependent DNA repair in human embryonic kidney (HEK293T) cells expressing luciferase-tagged ELG1; also: nearly all actives have a fitted effect of over 55% in size
Conditions: HEK293T ELG1-luciferase reporter, luminescence, 16 h, DNA damage induced by 5-fluorouridine; activity change, negative = inhibition: at 46.1 µM (top of the series)
Method in brief: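 DMSO vehicle served as the neutral condition. Each well held 2,000 cells given 5-fluorouridine plus compound; after 16 hr at 37 °C/5% CO2, ONE-Glo was added and luciferase measured 30 min later.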
% is scaled to controls: 0 for no effect and ±100 for the full control effect; potency is read from the fitted curve at half-maximal effect.

Compound	Potency	activity change, negative = inhibition
O=C(CCNC(=O)c1ccc(Br)cc1)NC1CCCc2ccccc21 (stereo not given)	inactive	
NC(=O)[C@H]1CC2(CC(c3cccc(NC(=O)COc4ccc(Cl)cc4)c3)=NO2)CN1C(=O)[C@H]1CCC(=O)N1 (stereo not given in full)	inactive	
C=C(C)C1CCC(C)=C1CC(C)(C)/C=N\n1cnnc1 (stereo not given)	inactive	
Cc1ccc(-c2nc(C3CCN(S(C)(=O)=O)CC3)no2)cc1	inconclusive: 14.6 µM [activator, partial curve]	
Cc1ccc(-c2nc(S(=O)(=O)c3ccccc3)c(SCC(=O)NCC3CCCO3)o2)cc1 (stereo not given)	inactive	
COc1ccc(-c2c3c(=O)n(C)c(=O)n(C)c3cn2-c2ccccc2)cc1	inactive	
O=C(CN(Cc1ccc(Cl)cc1)C(=O)CNS(=O)(=O)c1ccc(F)cc1)NCC1CCCO1 (stereo not given)	inactive	
CCN(CCCNC(=O)c1cn(CC)c2ccc(S(=O)(=O)N(C)C)cc2c1=O)c1cccc(C)c1	active: 23.1 µM	
Cc1cc(NC(=O)c2cc([N+](=O)[O-])cc([N+](=O)[O-])c2)no1		inconclusive: 143% [activator]
CCCc1cc(=S)n2c([nH]c3ccccc32)c1C#N	active: 16.4 µM	
O=C(Cc1ccc(Nc2nc3ccc(Br)cc3[nH]2)cc1)NCCc1cccs1	inconclusive: 20.6 µM [inhibitor, single point]	
Cc1ccc(NC(=O)Nc2ccc3c(c2)nnn3C)cc1C	inconclusive: 5.8 µM [activator, partial curve, poor fit]	
C/C(=N\NC(=O)c1ccccc1C)c1cccc([N+](=O)[O-])c1	inconclusive: 23.1 µM [activator, single point]	
COc1ccc(-c2cc(=O)c3c(O)c(OC)c(O)cc3o2)cc1	inconclusive: 1.83 µM [activator, partial curve]	
CCOc1ccc(NC(=O)c2ccc(NCC(=O)N3CCCCCC3)cc2)cc1	inconclusive: 18.3 µM [activator, single point]	
CC(C)(C)OC(=O)N1CSC[C@H]1C(=O)NC[C@H](CC(=O)O)c1ccc(Cl)cc1	inconclusive: 32.6 µM [activator, single point]	
CCn1c(=O)cc(OCC(=O)Nc2ccc(C)cn2)c2ccccc21	inconclusive: 3.66 µM [activator, partial curve, poor fit]	
CC(/C=N/NC(=O)Cn1nnc(N)n1)=C\c1ccc(C(C)C)cc1	inconclusive: 14.6 µM [activator, single point]	
CCc1c(OC(C)=O)c2ccccc2n(C)c1=O	inconclusive: 18.4 µM [inhibitor, single point]	
COc1ccc(OCC(=O)Nc2ccc(NC(=O)c3cccs3)cc2)cc1	inconclusive: 16.4 µM [activator, single point]	
Cc1c(Cl)cccc1NC(=S)NCCc1ccc(Cl)cc1	inactive	
CC(C)c1nnc(NC(=O)CCC(=O)N2CCN(C3c4ccccc4-c4ccccc43)CC2)s1	inconclusive: 18.4 µM [inhibitor, partial curve, poor fit]	
Cc1ccnc2nc(C(=O)OCC(=O)c3ccc(Cl)cc3)nn12	inconclusive: 35.5 µM [activator, partial curve, poor fit]	
CCC1(c2ccc(F)cc2)NC(=O)N(CC(=O)N2CCN(C(=O)c3ccco3)CC2)C1=O (stereo not given)	inactive	

Compound	Potency	activity change, negative = inhibition
CC(=O)Nc1ccc2nc(NC(=O)COc3ccc(C)cc3)sc2c1	inactive	
CN(C)c1cccc(C(=O)NNC(=S)NC2CC3CCC2C3)c1 (stereo not given)	inconclusive: 16.4 µM [activator, single point]	
N#Cc1cccc(Nc2c3c(nc4ccccc24)CCC3)c1	inconclusive: 16.4 µM [inhibitor, single point]	
COc1cc2c3nnc(-c4ccc(F)cc4)c-3cn(Cc3cccc(F)c3)c2cc1OC	inactive	
C/C(=N\NC(=O)c1n[nH]c2c1CCC2)c1ccco1	inconclusive: 2.91 µM [activator, partial curve]	
CCSc1ncnc2sc(C)c(C)c12	inconclusive: 32.6 µM [activator, partial curve, poor fit]	
Cc1cc(NC(=O)CSc2nnc(-c3ccccc3Cl)o2)no1	inconclusive: 16.4 µM [activator, partial curve]	
O=C(Cc1ccc(S(=O)(=O)N2CCOCC2)s1)N1CCN(c2cccc(C(F)(F)F)c2)CC1	inconclusive: 16.4 µM [inhibitor, partial curve, poor fit]	
COc1ccc(-c2cc(C)no2)cc1S(=O)(=O)N(C)c1ccc(C)c(C)c1	inconclusive: 25.9 µM [inhibitor, single point]	
COc1ccc(C/C(C)=N/NC(=S)Nc2ccc(Cl)cc2)cc1	inactive	
CC(C)Cn1c(=O)c2c(nc3n2CC(C)CN3Cc2ccccc2)n(C)c1=O (stereo not given)	inactive	
CCOc1ccc(NC(=S)N2CCC(N(C)CCN3CCOCC3)CC2)cc1	inactive	
O=C1/C(=C/c2cccs2)SC(=S)N1CCCC(=O)N(CCO)c1ccccc1	inconclusive: 32.6 µM [inhibitor, partial curve, poor fit]	
O=C(c1cccc(Cl)c1)N(Cc1ccco1)C1CCS(=O)(=O)C1 (stereo not given)	inactive	
C[C@H](CO)N1C[C@H](C)[C@@H](CN(C)CC2CCCCC2)Oc2c(NS(=O)(=O)c3cn(C)cn3)cccc2C1=O	inconclusive: 29.1 µM [activator, single point]	
Cn1c(CO)c(-c2ccccc2)c2cc([N+](=O)[O-])ccc21	inactive	
CC(C)(C)NCC(O)COCc1ccc(Cl)cc1 (stereo not given)	inactive	
Nc1cccc(-c2nc3ccccc3s2)c1	inconclusive: 4.61 µM [activator, partial curve]	
COc1ccc(CN2CCN(C(=O)c3ccco3)CC2)cc1OCc1ccccc1	inconclusive: 25.9 µM [inhibitor, single point]	
Cc1cc(C(=O)COC(=O)Cc2n[nH]c(=O)c3ccccc23)c(C)n1-c1ccc2c(c1)OCO2	active: 13 µM	
O=C(Nc1ccccc1)Nc1cccc2cccnc12	inconclusive: 2.91 µM [activator, full curve]	
c1nnc2c3c4c(sc3ncn12)CCC4	inconclusive: 13 µM [inhibitor, partial curve]	
Cn1c(=O)c2c(nc(SCC(=O)NCc3ccc4c(c3)OCO4)n2Cc2ccc(F)cc2)n(C)c1=O	inconclusive: 18.4 µM [inhibitor, single point]	
CC(C)(C)Nc1nc(Cl)nc(Nc2ccccc2)n1	inconclusive: 5.62 µM [activator, partial curve]	

An excerpt of these results, as a markdown table:

| Compound | Potency | activity change, negative = inhibition |
| --- | --- | --- |
| COc1cc2c3nnc(-c4ccc(F)cc4)c-3cn(Cc3cccc(F)c3)c2cc1OC | inactive |  |
| CCSc1ncnc2sc(C)c(C)c12 | inconclusive: 32.6 µM [activator, partial curve, poor fit] |  |
| COc1ccc(-c2cc(C)no2)cc1S(=O)(=O)N(C)c1ccc(C)c(C)c1 | inconclusive: 25.9 µM [inhibitor, single point] |  |
| CC(C)Cn1c(=O)c2c(nc3n2CC(C)CN3Cc2ccccc2)n(C)c1=O (stereo not given) | inactive |  |
| CC(C)(C)Nc1nc(Cl)nc(Nc2ccccc2)n1 | inconclusive: 5.62 µM [activator, partial curve] |  |

Going on with the list.

Compound	Potency	activity change, negative = inhibition
CCSc1nnc(NC(=O)c2c(C)noc2C)s1	inconclusive: 23.1 µM [activator, single point]	
COc1ccc([C@H]2CC(=O)C=C(c3ccc(OC)c(OC)c3)C2)cc1	inconclusive: 16.4 µM [inhibitor, partial curve, poor fit]	
c1ccc(OCc2nc(-c3ccccc3)no2)cc1	inconclusive: 20.6 µM [activator, partial curve]	
O=C(CSc1ccc(C(F)(F)F)cc1[N+](=O)[O-])Nc1ccccc1	inconclusive: 18.4 µM [activator, single point]	
CCCC[C@@H]1CNCCN1CCc1cccc2ccccc12	inactive	
Nc1cc(Nc2ccc(Br)cc2)nc(N)n1	inconclusive: 18.3 µM [activator, partial curve]	
CCCCCN1CC(O)=C(c2nc3ccccc3[nH]2)C1=N	inconclusive: 9.2 µM [activator, partial curve]	
CCN(CC)S(=O)(=O)c1ccc(NN=C2CCN(C(C)C)CC2)c([N+](=O)[O-])c1	inconclusive: 2.59 µM [inhibitor, partial curve, poor fit]	
Cc1cc(Nc2cccc(F)c2)nc(-c2ccccc2O)n1	inactive	
Cc1cc(C)cc(NC(=O)Nc2ccc(NC(=O)c3ccccc3O)cc2)c1	inactive	
Cc1ccc(-c2nc(-c3cccnc3)sc2CC(=O)Nc2ccc3nc(C)sc3c2)cc1	active: 18.4 µM	
O=C(Nc1cccnc1Cl)c1cc(-c2ccc(O)cc2)on1	inactive	
O=C1C2C3C=CC(C3)C2C(=O)N1/N=C/c1cn(Cc2ccc(F)cc2)c2ccccc12 (stereo not given)	inconclusive: 0.92 µM [inhibitor, partial curve]	
Cc1ccc(C(=O)NCC(=O)NCC(c2cccs2)N2CCOCC2)cc1C (stereo not given)	inconclusive: 4.61 µM [activator, full curve, poor fit]	
O=C(O)/C=C/C(=O)Nc1ccc(Cl)c(C(=O)O)c1	inconclusive: 25.9 µM [activator, single point]	
Cc1ccc2c(c1)C(O)(CC(=O)/C=C/C=C/c1ccccc1)C(=O)N2 (stereo not given)	inactive	
CC(=O)Nc1cccc(-c2csc(Nc3cc(C)ccn3)n2)c1	inconclusive: 1.16 µM [activator, partial curve, poor fit]	
COc1ccccc1CCNC(=O)C(=O)c1cn(CC(=O)N2CCOCC2)c2ccccc12	inconclusive: 10.3 µM [activator, partial curve]	
O=C(c1ccccc1F)N1CCN(S(=O)(=O)c2ccc3ccccc3c2)CC1	inactive	
Nc1c(C(=O)NCCc2ccccc2)sc2nc(N3CCOCC3)c3c(c12)CCCC3	inactive	
CCOc1ccccc1NC(=O)C(=O)CC(=O)c1ccc(OC)cc1	inconclusive: 20.6 µM [inhibitor, single point]	
Cc1ccc2nc(-c3ccc(NC(=O)CSc4ccccc4)cc3)[nH]c2c1	inconclusive: 0.58 µM [activator, full curve]	

From PubChem BioAssay AID504467 (National Center for Advancing Translational Sciences (NCATS), 2011)
